The entries are a selection whose mix differs from that of the whole data set. For some assays here: At the low end of the ranking the order means little. Some of the results follow. For some assays here: Construct or isoform of the protein are uncertain.

Protein sequences, listed by entry. Tags and fused reporters are not part of them. Lines headed by an entry give the natural chain unless they say otherwise; changes in a name come on top.
UniProt P32519: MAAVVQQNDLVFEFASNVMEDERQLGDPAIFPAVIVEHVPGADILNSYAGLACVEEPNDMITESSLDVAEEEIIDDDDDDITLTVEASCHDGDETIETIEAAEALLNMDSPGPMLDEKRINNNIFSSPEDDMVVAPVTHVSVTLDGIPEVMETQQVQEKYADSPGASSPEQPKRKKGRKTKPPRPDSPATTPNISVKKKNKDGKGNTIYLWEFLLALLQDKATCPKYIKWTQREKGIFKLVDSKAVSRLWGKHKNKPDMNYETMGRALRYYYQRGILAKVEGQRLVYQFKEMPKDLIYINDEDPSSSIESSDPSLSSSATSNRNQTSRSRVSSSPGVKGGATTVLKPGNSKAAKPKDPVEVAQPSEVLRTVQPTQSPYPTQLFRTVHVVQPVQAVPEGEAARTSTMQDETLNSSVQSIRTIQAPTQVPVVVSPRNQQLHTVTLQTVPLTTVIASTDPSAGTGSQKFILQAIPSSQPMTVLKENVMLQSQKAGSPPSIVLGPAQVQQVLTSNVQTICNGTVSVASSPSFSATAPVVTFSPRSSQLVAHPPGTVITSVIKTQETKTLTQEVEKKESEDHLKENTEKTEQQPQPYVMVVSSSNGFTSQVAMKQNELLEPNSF

The target in one test is ELF1 (UniProt P32519). As to the kind of experiment: DAPPL (digital affinity profiling via proximity ligation, sequencing). Particulars: 10 mM Tris-HCl pH 7.5, 50 mM NaCl, 1 mM DTT, 4% glycerol, room temperature, 30 min; GST-TFs on glutathione beads, 16-mer random dsDNA library, 0.1% …; high values mean tight binding; double strand, one strand shown; scale: fold enrichment (6-mer frequency, TF over GST control).
Regarding CTATTA, the binding signal amounted to 1.09.
CGATGC: the binding signal came out at 1.02.
The same measure, in the same setting: the value for GCTAGG was 0.926.
In turn, TTGAGG registered a binding signal of 1.08.
Same read-out and setting: the same measure for ACAATT: 1.32; for TGTTGC: 1.31; for GATGTA: 1.26.
Still for that read-out and setting: the value for GGTCTG was 0.963; that for GTTTGT was 0.963; that for CCACAA was 1.21.
As to GTCCCA, the binding signal came out at 1.14.
Same read-out and setting: the value for TCTGGC was 1.14.
On the same count and under the same terms, the same measure for TTTTTC: 1.22; for CTGGTA: 1.38; for ACTCCG: 1.48.
Same read-out and setting: the same measure for CCGCCG: 1.26; for CCCACT: 1.38.
Sequence CACAAG gave a binding signal of 1.18.
On the same count and under the same terms, the value for ATTTAG was 1.15; that for ATTTTA was 1.29; that for TTGTTC was 1.44.
The sequence TCATCG registered a binding signal of 1.01.
CGACCA came in with a binding signal of 1.31.
Same read-out and setting: the value for CTCGAG was 1.28; that for AGGAAG was 1.23; that for GTATCT was 1.18.
Still for that read-out and setting: the value for GCGCGC was 0.948; that for TCACGG was 1.06; that for CCGCAA was 1.31.
On the same count and under the same terms, the value for TTGCAA was 1.18; that for TGTGGT was 1.01; that for CTTCAC was 1.45.
As to TGCCCA, the binding signal turned out to be 1.16.
The sequence GAAGTG showed a binding signal of 1.52.
Same read-out and setting: the same measure for TTCAAC: 1.33; for ACCTTG: 1.21; for CGTAAA: 1.07.
Same read-out and setting: the value for CCCCCC was 1.08; that for TTTGTA was 1.56; that for TACAAT was 1.3.

The target of the next test is T1, ETV4 (UniProt P43268).
T1 sequence: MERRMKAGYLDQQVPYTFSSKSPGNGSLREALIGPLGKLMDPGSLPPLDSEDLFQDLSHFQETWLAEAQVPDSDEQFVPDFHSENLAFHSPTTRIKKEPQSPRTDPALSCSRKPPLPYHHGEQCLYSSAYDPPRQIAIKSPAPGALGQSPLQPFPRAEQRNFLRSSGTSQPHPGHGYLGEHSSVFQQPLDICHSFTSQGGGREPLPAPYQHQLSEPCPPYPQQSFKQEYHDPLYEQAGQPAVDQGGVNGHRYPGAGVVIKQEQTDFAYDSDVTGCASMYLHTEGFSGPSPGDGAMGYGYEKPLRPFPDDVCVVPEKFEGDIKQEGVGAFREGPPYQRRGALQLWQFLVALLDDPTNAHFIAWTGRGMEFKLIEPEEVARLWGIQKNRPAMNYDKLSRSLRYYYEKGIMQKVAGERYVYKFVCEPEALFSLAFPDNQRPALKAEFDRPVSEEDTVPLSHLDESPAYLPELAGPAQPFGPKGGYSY
The test is described as above. Particulars: 10 mM Tris-HCl pH 7.5, 50 mM NaCl, 1 mM DTT, 4% glycerol, room temperature, 30 min; GST-TFs on glutathione beads, 16-mer random dsDNA library, 0.1% …; high values mean tight binding; double strand, one strand shown; scale: fold enrichment (6-mer frequency, TF over GST control).
CTATTA yielded a binding signal of 1.04.
Still for that read-out and setting: the same measure for CGATGC: 1.06; for GCTAGG: 0.988.
The sequence TTGAGG showed a binding signal of 1.16.
Same read-out and setting: the value for ACAATT was 1.34; that for TGTTGC was 1.33.
For the sequence GATGTA, the binding signal is 1.47.
As to GGTCTG, the binding signal is 1.
Still for that read-out and setting: the same measure for GTTTGT: 0.929; for CCACAA: 1.18.
Still for that read-out and setting: the value for GTCCCA was 1.17; that for TCTGGC was 1.18.
For TTTTTC, the binding signal is 1.18.
The sequence CTGGTA showed a binding signal of 1.35.
The same measure, in the same setting: the value for ACTCCG was 1.41; that for CCGCCG was 1.3; that for CCCACT was 1.37.
On the same count and under the same terms, the same measure for CACAAG: 1.08.
Same read-out and setting: the same measure for ATTTAG: 1.09.
Consider ATTTTA, for which the binding signal was 1.31.
TTGTTC: the binding signal was 1.46.
Same read-out and setting: the same measure for TCATCG: 1.07.
CGACCA came in with a binding signal of 1.22.
Still for that read-out and setting: the same measure for CTCGAG: 1.33; for AGGAAG: 1.24; for GTATCT: 1.1.
On to GCGCGC, for which the binding signal was found to be 1.05.
Same read-out and setting: the same measure for TCACGG: 1; for CCGCAA: 1.33; for TTGCAA: 1.09.
As for TGTGGT, the binding signal was 1.02.
In the case of CTTCAC, the binding signal came to 1.41.
Same read-out and setting: the same measure for TGCCCA: 1.2; for GAAGTG: 1.73.
As to TTCAAC, the binding signal came to 1.22.
For the sequence ACCTTG, the binding signal amounted to 1.29.
Still for that read-out and setting: the same measure for CGTAAA: 1.11; for CCCCCC: 1.15.
Turning to TTTGTA, the binding signal is 1.56.
Same read-out and setting: the value for TACAAT was 1.32.
